Test results: publication PMC7567884
The exact form of at least one protein or probe is not confirmed. A negative result means that nothing was seen under these conditions. Where a protein sequence is shown, tags need not be part of it.

Molecular target: T1, His-LexA (Synechocystis sp. PCC 6803) (UniProt P73722)
T1 sequence (looked up, limits assumed): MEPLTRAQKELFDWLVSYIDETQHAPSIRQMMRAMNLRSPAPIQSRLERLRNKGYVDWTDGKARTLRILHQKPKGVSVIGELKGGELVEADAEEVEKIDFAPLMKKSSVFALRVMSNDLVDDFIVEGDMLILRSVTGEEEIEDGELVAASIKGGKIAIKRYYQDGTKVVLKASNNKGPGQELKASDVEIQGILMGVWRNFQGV
Assay: EMSA
Settings: DIG Gel Shift Kit 2nd generation (Roche), as in Kizawa et al. (ref 9); 6% polyacrylamide gel; pH and temperature not given; recombinant protein; protein details: N-terminal 6xHis; label: 3' DIG-ddUTP; probe letters rebuilt from the primers and the …

GAAATGGGACGCACTTCTGGTCAGTTTATAGCAAAAATGCTGGGGAAAGGAAGACAACTAGGGAAAAAGAACAGGACATCAAATGGTCATTCCCCAGACCCTGGCGTCTTTGCCAGAGTAATCTCCCTGGCGCGGATGTTACACAAATGTAACGAAAAATATTTTCCCTCTCAGAATTTAGGCAAAGTGCCCAAACCCATCCTAGGCAAGCAATTCGTCCACCAACAAAAAGCTCTTTTGGTCAACAGACTTGACAAAAATCTTAACAATACGTTACATTTATTTACATAAGGTTACAAAATAAAAACCTCAAATACCCAATCAAGGAGATCAACACT (double strand) [PhliB]
binding result: no binding
